## Assay results

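Luminescence from an EWS-FLI1 target-promoter (NR0B1) reporter, set against a CMV-promoter reporter, two days after silencing single genes in TC32 Ewing sarcoma cells.
Each siRNA was applied at 20 nM.
A z-score of the log NR0B1-over-CMV signal, less the median of siRNAs with the same seed; more negative means a stronger specific loss of the NR0B1 reporter.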

The strongest results of the screen are mostly left out here.
Sequences are the guide (antisense) strand, without overhang.

strand,target gene,seed-corrected z-score
AAAUUACUCUCGAACAUUG,FAM71B,-0.4771
UUCUUGAAGACCAUGAGGC,FAM160A2,0.9338
AUGGUUUCCAGCAACUACC,MPPE1,-0.617
UUUGACUUCAGGCUAAAGC,HKR1,0.6423
UCUGAAUCCUAAAUCUUCC,OSBPL2,-0.1714
UAUUCUGGGUCGUUCAUGC,RNF31,1.492
UGACUUCUGCGUGUGCUGC,USE1,-0.8081
UUCUUCGCAGGAUAUAUGG,CENPF,0.9778
UUCAAGGUCUGUUAGGUGC,WDR25,0.17
UCUGCAAUAAGCUUCAACC,HARS2,-0.6443
UCCAUGAUCAUUUGAUGAC,DPH2,0.5619
AAUAUACCCAGAGACGAUG,PRIM1,0.8229
UGAGUGCAAGGAGUUGAGG,ZMIZ2,0.6724
UUUAUUAGACGGUUAUUGC,PHGDH,0.01252
UUACGUAAGACACUGGGCG,C1orf116,0.8063
UAAGGAUAGAGAGAUUUGC,EIF1AD,0.5314
UUCUACUCGAACAAGAUCC,MRPL21,0.1204
AACUAUUUCUUCAAACUGC,LOC644667,-0.1376
UUGUUGUCAACAGUGCUUG,XPO4,-0.1626
UGAAGGCUCACCAGCAUCU,OR1M1,-1.047
AUAUCGAUCAUUGAAUCGC,FBXL12,0.3534
UGUGAUGAGAGGGAAGGGC,GPR182,0.7728
UCCAUAAUAACACCUGCUC,CLCN3,-0.2007
UAUAUAUCAUUGGUUGCUG,POLR2K,-0.7975
ACAGCAACGAAAAUGUUCC,IFNGR2,-0.03658
UCCAAUUCACUUACUAGCC,RPS7P4,-0.4238
UCCAUGUUCACAAUCGGCC,TERT,-0.1084
UUCACUGUCCAGUACGUCC,USP27X,-0.9107
UUCAAUUGAUGAUCUAGUC,BUB3,0.7271
UUCGGUGAGAUUCAAUGUC,CUBN,-0.1681
AAUCUAAGUACCAAGGAGC,HEXB,0.1512
UUCUUGAUCUGCAUAAGCC,ASNA1,0.07605
UAGCUUAAUCUCGAUGCCG,BTBD9,-0.1014
UUCCUAAUGACCGGGAUGG,CDK5RAP2,-0.6675
UAAGGUCGAAGGUAGCUGG,ANKRD17,0.4324
UUAAUCUGGAGAGUUUUGU,STYXL1,-0.3549
UGAUGUUUGACAGAGGCCG,GTSE1,0.5988
UCAGGUAACAGGCUCUGCC,RGS11,-0.5173
UUAUUAUCCCACAUCGUGG,CHST15,0.2245
UUCAAUGAAACUUCGGCAC,GSG1,-0.0969
UAAUGUUAAAGUAAGGUAG,KCNS3,-0.4352
UUCCUGGAGGGUAUUCUCC,CNOT7,0.5935
UUUUCGCUUAGUAGAGAUG,PTRF,-0.6409
AAUAGUAGCAUGGUCUUGC,DPAGT1,-1.397
UCCAGUUCUUCGUUGGUGG,STX1B,0.9489
UUAAGUACAUUUGGUGUUC,DEFB129,-1.58
UUAGAAAUGCAGGAUCUCC,FAM107A,0.4441
UCAUCAGUUACGCAGUUGC,BAG5,-0.137
UCAUGUAUUCUUAGAGGUC,CEP95,0.008504
UCUGUGAGUAAGCAAGGCC,NLRC5,-0.809
AACGAAAUGCGUAUCCUCC,IRF2BPL,-0.1084
UAUGUCUUCAUGCACAUUC,CCDC184,0.4165
AUUCAUAACAUUCGUAGGC,ZNF12,0.6931
UCUUGGAGUAAUGAUAGAG,SULT2B1,-0.9898
UGAGUUGCAGGCUUAAUGC,ZNF532,-0.3096
UGUUCUGCAAAUUCGAUGC,PNN,-0.01662
UGUGCGACGUAGAAGAUCC,TFAM,0.3833
UGAAUGAUAAUAGUCAGUG,WHSC1L1,-0.542
UCACUGUUACCUCCGAAUC,MPPED2,0.3011
UUUAGUUAUGGGUAGGAAC,SLC26A5,0.3821
UAUAGCUCUUUCUCGACUG,CREBL2,1.58
UCUUCCACCACUUCGAUGC,RNF123,0.2421
UCUUUUUGCUCUCUUUACC,EHD1,-0.3965
UUCUUUAAGCUGGUCGUGG,OAZ3,0.4826
UGAGGAACGAGUUCCAACC,NLGN4X,-0.7002
UGAGUCAGAAGGGAGACCC,ASPDH,1.46
UUAAGACCUAAAAUCAGUG,OR6C70,-0.3954
UUAUGUUCUAACAACUGAC,TRIM24,-0.2577
UUCACGAAACUCUUCCUCG,ELP5,-0.1597
AUUGCAUUCACAUAGCUCG,HSPG2,-0.2217
ACCGUGUCUAGGGCAAAGG,NLRX1,1.367
UUUGCUCCUCGCUUAGUUG,RACGAP1,0.4055
UUCUUAUCUUGAGGUUUGC,KIAA2012,0.02007
AAUACGUUCAUAUAAGUAC,CHD8,0.7856
UGAAGUUGUGGAACUGUAG,MFRP,-0.05476
UCUGUUGUCAGAAGUAAGG,IL23R,-0.3107
AAGUUUGUGACAGUUAGCG,DOCK6,0.9122

Once more, the final 8:

| strand | target gene | seed-corrected z-score |
|---|---|---|
| `AUUGCAUUCACAUAGCUCG` | HSPG2 | -0.2217 |
| `ACCGUGUCUAGGGCAAAGG` | NLRX1 | 1.367 |
| `UUUGCUCCUCGCUUAGUUG` | RACGAP1 | 0.4055 |
| `UUCUUAUCUUGAGGUUUGC` | KIAA2012 | 0.02007 |
| `AAUACGUUCAUAUAAGUAC` | CHD8 | 0.7856 |
| `UGAAGUUGUGGAACUGUAG` | MFRP | -0.05476 |
| `UCUGUUGUCAGAAGUAAGG` | IL23R | -0.3107 |
| `AAGUUUGUGACAGUUAGCG` | DOCK6 | 0.9122 |

Data taken from PubChem BioAssay AID1159506, deposited by NCATS (2015).